We go through one molecule from publication PMC4609755.

Protein sequences, listed by entry. Tags and fused reporters are not part of them. Residues count along the entry.
UniProt Q9WV18, residues 20-960: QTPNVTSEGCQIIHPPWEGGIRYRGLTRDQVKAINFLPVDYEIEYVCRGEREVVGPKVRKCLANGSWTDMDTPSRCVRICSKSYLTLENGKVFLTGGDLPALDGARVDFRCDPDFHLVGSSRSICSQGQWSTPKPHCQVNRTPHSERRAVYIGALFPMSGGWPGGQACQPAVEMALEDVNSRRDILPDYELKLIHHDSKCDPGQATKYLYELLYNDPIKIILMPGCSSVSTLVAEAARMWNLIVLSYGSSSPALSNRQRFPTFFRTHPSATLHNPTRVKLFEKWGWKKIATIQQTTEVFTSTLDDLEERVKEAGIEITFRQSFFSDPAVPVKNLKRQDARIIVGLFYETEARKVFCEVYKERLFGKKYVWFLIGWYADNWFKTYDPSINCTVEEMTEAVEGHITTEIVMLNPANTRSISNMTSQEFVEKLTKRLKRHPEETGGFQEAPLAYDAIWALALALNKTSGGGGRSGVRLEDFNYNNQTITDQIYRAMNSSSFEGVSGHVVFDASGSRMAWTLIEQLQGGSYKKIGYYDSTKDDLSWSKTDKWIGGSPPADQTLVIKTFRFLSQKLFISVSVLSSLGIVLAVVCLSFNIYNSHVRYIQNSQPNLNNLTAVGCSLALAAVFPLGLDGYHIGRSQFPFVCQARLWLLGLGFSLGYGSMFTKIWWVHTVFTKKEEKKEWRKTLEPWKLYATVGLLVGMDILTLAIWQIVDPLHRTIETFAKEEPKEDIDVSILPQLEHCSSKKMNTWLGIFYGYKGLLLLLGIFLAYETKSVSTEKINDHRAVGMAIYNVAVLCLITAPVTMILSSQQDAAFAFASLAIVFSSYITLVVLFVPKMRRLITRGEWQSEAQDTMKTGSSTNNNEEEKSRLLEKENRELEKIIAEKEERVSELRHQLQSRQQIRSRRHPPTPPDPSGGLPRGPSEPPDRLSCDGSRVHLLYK

No constants are given. Whether binding was seen depends on the method and setting. For some assays here: Binding seen in cells or lysates may run through a third protein. Some entries that bind do so weakly or less than the wild type.

For test [1], the target named is GABAB1 receptor subunit (mouse (endogenous in C57BL/6J hippocampus)) (UniProt Q9WV18). As to the kind of experiment: native gel or EMSA; antibody shift assay: membrane preparations pre-incubated 1 h at 4°C with anti-GABAB1 or anti-GABAB2 antibody, BN-PAGE then SDS-PAGE and Western blotting.
Test [2] shares this target. As to the kind of experiment: proximity ligation; in situ PLA on fixed 30 μm mouse brain slices (hippocampus) with mouse anti-GABAB1 and rabbit anti-GABAB2 primary antibodies; negative control with no primary antibody.

B1: GABAB2 receptor subunit (receptor, UniProt Q80T41 41-940)
chain: WARGAPRPPPSSPPLSIMGLMPLTKEVAKGSIGRGVLPAVELAIEQIRNESLLRPYFLDLRLYDTECDNAKGLKAFYDAIKYGPNHLMVFGGVCPSVTSIIAESLQGWNLVQLSFAATTPVLADKKKYPYFFRTVPSDNAVNPAILKLLKHFRWRRVGTLTQDVQRFSEVRNDLTGVLYGEDIEISDTESFSNDPCTSVKKLKGNDVRIILGQFDQNMAAKVFCCAFEESMFGSKYQWIIPGWYEPAWWEQVHVEANSSRCLRRSLLAAMEGYIGVDFEPLSSKQIKTISGKTPQQYEREYNSKRSGVGPSKFHGYAYDGIWVIAKTLQRAMETLHASSRHQRIQDFNYTDHTLGRIILNAMNETNFFGVTGQVVFRNGERMGTIKFTQFQDSREVKVGEYNAVADTLEIINDTIRFQGSEPPKDKTIILEQLRKISLPLYSILSALTILGMIMASAFLFFNIKNRNQKLIKMSSPYMNNLIILGGMLSYASIFLFGLDGSFVSEKTFETLCTVRTWILTVGYTTAFGAMFAKTWRVHAIFKNVKMKKKIIKDQKLLVIVGGMLLIDLCILICWQAVDPLRRTVERYSMEPDPAGRDISIRPLLEHCENTHMTIWLGIVYAYKGLLMLFGCFLAWETRNVSIPALNDSKYIGMSVYNVGIMCIIGAAVSFLTRDQPNVQFCIVALVIIFCSTITLCLVFVPKLITLRTNPDAATQNRRFQFTQNQKKEDSKTSTSVTSVNQASTSRLEGLQSENHRLRMKITELDKDLEEVTMQLQDTPEKTTYIKQNHYQELNDILSLGNFTESTDGGKAILKNHLDQNPQLQWNTTEPSRTCKDPIEDINSPEHIQRRLSLQLPILHHAYLPSIGGVDASCVSPCVSPTASPRHRHVPPSFRVMVSGL
Turning to B1, the binding entry in test [1] and in test [2] was “binds” in each case.
